In ChEMBL document CHEMBL1140015, “Pyrazolone methylamino piperidine derivatives as novel CCR3 antagonists” (Bioorg Med Chem Lett, 2007):
In brackets after ≈: the same amount, converted by molar mass.

Experiment: Solubility in water at pH 7.4
Conditions: buffer

Work on Cc1c(CN(CCc2ccccn2)C2CCN(C(=O)c3c(F)cccc3F)CC2)c(=O)n(-c2ccc(F)cc2)n1C yielded a solubility of 1500 µg/mL (≈ 2660 µM).
